Results from the supplement of paper PMC10849652.
The list shows a part of the results.

By UniProt entry, the sequences of proteins in these tests, tags left out. Where a name states a change or a piece, a line headed by the entry shows the natural chain unless it says otherwise.
UniProt A6NHR9: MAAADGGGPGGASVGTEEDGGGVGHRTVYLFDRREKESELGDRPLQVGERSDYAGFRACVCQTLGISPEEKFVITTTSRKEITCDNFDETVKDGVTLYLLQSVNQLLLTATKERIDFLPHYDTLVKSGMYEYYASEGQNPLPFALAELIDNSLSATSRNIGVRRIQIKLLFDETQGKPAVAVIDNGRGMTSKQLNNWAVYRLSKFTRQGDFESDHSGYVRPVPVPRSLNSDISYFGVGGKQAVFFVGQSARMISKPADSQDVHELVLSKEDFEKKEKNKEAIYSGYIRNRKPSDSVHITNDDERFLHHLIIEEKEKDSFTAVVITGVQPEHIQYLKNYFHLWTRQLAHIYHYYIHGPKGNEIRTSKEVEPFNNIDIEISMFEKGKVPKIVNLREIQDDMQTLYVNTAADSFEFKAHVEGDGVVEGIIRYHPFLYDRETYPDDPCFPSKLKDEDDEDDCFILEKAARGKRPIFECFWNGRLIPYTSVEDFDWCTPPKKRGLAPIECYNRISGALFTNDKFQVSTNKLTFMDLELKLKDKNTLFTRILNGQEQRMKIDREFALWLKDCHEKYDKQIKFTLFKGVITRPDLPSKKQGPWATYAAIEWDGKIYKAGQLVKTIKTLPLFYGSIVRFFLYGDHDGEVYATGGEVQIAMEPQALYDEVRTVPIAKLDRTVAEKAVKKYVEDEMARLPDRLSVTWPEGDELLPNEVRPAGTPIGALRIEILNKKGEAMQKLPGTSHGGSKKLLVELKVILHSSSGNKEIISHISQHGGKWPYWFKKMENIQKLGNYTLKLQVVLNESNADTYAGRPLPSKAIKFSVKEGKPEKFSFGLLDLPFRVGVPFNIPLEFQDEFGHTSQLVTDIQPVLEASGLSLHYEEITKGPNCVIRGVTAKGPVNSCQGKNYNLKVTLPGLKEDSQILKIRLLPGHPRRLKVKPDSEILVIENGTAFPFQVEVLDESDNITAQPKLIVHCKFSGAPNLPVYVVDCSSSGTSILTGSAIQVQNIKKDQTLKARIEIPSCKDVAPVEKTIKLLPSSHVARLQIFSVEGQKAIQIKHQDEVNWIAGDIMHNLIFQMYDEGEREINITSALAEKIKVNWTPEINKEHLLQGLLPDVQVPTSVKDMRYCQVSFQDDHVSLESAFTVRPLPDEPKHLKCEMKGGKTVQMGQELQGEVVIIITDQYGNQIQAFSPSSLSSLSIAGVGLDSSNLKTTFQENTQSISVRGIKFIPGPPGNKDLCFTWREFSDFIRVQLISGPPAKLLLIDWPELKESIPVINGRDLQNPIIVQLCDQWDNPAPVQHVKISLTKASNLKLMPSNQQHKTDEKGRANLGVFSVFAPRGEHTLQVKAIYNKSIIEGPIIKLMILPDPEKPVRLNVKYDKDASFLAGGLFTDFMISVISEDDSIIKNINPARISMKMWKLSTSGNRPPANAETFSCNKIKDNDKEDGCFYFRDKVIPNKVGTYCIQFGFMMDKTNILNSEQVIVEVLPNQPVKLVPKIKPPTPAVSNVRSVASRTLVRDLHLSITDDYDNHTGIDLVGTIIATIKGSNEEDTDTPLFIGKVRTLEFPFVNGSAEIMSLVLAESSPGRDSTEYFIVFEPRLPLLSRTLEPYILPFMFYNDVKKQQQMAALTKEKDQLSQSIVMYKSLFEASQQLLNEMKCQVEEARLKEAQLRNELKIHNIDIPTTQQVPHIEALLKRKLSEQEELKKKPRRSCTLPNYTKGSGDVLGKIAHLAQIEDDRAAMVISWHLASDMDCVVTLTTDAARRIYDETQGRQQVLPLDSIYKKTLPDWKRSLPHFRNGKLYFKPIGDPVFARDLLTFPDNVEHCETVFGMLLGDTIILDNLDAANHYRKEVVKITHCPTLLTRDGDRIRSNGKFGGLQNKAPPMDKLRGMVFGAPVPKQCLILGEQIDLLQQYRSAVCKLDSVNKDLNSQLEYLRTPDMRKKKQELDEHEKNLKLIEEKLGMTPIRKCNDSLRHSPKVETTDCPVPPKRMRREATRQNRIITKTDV
UniProt O00193: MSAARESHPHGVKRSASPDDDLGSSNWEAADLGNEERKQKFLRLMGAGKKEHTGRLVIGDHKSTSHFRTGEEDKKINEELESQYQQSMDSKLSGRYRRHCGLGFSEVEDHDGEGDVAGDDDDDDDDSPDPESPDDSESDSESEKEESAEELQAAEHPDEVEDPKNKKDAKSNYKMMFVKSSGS
UniProt Q96BD0: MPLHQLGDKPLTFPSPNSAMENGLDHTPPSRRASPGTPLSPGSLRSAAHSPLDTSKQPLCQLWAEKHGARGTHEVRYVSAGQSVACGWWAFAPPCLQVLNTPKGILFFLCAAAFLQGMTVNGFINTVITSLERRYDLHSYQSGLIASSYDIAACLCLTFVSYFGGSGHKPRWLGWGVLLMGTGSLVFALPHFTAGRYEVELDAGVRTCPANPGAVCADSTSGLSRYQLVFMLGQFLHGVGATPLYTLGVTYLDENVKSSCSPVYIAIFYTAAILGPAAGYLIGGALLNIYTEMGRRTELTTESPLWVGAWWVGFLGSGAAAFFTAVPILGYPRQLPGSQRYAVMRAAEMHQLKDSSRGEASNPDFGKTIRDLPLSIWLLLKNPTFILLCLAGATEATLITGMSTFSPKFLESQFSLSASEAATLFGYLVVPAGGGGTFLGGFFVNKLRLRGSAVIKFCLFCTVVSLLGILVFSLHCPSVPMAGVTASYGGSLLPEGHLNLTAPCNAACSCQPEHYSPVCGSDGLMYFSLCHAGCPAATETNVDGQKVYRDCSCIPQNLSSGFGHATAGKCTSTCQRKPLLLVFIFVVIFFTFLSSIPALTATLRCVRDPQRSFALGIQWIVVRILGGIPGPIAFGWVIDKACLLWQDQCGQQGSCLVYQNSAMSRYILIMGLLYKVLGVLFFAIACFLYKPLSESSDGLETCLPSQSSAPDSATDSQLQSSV
UniProt Q8IY18: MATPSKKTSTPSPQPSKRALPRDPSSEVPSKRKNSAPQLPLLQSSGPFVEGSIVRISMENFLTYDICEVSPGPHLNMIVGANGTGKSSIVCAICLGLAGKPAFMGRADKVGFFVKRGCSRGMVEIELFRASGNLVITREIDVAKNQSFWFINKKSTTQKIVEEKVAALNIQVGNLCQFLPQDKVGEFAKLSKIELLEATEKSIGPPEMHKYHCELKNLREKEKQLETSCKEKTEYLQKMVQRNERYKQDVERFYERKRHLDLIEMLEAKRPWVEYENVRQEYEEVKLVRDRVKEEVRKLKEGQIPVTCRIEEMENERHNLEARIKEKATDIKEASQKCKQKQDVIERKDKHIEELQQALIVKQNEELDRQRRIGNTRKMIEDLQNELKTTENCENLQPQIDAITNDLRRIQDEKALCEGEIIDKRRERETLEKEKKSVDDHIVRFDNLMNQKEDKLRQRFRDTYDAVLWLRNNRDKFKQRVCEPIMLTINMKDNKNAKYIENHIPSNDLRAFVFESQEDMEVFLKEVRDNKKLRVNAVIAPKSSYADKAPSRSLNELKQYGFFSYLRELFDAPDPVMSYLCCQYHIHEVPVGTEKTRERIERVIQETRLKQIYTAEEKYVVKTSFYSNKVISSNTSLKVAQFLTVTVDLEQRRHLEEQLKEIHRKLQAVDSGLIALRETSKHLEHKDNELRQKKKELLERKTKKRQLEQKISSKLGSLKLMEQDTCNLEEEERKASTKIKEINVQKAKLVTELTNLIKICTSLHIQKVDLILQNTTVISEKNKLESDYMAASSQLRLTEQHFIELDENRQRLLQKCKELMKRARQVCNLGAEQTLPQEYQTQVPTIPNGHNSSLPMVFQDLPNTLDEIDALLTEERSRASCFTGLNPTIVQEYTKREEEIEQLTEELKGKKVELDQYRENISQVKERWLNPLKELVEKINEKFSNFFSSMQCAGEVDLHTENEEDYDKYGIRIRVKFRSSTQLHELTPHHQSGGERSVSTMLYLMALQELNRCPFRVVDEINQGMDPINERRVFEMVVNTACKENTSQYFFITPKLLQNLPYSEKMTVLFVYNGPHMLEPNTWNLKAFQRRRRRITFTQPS
UniProt O95149, whole entry, looked up: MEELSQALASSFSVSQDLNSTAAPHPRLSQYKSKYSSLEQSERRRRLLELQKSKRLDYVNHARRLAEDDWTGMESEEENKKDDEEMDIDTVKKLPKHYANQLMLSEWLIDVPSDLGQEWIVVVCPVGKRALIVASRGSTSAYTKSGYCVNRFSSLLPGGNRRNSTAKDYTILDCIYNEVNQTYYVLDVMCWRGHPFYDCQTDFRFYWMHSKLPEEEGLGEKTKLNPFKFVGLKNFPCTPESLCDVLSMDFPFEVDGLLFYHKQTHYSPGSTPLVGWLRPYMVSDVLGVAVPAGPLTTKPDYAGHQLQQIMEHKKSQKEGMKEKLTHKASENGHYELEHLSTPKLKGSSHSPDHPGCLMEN
UniProt Q9Y5X3: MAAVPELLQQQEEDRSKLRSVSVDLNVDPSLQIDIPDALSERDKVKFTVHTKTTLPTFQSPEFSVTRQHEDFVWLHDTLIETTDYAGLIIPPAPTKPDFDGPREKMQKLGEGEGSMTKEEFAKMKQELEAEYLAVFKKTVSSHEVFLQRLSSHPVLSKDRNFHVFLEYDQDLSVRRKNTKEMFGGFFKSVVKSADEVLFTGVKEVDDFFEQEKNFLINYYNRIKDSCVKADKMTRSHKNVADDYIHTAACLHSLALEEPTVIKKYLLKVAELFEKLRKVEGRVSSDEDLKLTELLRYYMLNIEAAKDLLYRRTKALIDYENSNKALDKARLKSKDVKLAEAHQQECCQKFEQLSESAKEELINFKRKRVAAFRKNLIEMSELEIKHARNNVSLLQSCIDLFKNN
UniProt Q8WVK2: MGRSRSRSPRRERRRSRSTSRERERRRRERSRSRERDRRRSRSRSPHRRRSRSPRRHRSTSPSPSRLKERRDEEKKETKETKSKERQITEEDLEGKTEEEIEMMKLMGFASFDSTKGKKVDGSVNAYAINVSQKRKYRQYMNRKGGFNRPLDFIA
UniProt Q92536: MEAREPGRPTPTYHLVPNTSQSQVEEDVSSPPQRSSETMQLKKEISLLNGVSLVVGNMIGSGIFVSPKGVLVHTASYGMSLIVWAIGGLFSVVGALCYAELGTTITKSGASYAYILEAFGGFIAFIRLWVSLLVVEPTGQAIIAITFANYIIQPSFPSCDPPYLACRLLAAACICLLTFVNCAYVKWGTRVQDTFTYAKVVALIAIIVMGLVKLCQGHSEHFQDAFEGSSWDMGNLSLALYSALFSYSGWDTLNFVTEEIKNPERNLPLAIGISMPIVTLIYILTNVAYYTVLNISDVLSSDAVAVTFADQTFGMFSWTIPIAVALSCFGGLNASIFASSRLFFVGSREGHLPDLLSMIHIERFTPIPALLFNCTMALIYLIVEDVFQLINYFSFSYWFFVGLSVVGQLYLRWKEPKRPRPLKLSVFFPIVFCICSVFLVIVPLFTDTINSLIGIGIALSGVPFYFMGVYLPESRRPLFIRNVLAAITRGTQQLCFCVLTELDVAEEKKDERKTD
UniProt Q9UNH7: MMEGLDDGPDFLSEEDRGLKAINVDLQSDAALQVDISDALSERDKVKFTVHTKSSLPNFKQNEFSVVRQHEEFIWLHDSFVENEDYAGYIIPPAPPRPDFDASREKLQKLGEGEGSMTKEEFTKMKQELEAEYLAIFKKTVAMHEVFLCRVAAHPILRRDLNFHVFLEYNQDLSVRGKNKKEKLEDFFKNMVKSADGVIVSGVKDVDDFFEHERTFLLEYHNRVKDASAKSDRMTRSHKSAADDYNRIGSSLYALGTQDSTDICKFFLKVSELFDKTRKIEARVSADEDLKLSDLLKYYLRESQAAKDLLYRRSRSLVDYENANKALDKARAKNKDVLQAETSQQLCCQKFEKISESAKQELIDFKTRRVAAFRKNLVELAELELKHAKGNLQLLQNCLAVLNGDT
UniProt Q9H7B4: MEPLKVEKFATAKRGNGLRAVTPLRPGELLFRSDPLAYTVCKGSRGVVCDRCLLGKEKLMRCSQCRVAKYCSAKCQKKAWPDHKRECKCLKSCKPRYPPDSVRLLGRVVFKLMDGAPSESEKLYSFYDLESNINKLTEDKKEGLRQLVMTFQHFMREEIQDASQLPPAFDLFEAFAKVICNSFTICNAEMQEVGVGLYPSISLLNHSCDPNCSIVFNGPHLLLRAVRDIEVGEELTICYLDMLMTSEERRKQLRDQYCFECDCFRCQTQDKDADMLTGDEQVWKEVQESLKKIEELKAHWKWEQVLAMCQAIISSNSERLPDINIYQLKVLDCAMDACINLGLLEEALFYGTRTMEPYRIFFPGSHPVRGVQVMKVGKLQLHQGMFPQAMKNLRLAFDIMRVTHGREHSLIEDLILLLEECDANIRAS
UniProt B2RUZ4: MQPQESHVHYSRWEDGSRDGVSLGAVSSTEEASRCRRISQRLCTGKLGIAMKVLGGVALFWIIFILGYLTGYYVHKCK

Assays:
Test in all cases: log2 fold change, soluble protein after heating vs DMSO (PISA); higher = thermal stabilisation; K562 cells, 10 uM, 30 min; active = over 0.2 and 3.5 SD of the protein, either way, in both replicates (recomputed)
[1] = compound: CS(=O)(=O)c1ccc(-c2cnc(N)c(C(=O)Nc3ccccc3)n2)cc1
In short: (§1)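 Values are thermal stability changes relative to control samples and are taken from duplicates. They are stated as log2 fold changes. Before quantification by TMTpro 16plex LC-MS/MS with equalised channel sums, K562 cells at 2×10^6 cells/mL were treated with 10 μM compound for 30 min, heated in aliquots for 3 min across 48°C-58°C, pooled, extracted in PBS with 0.5% NP-40 at 4°C, and centrifuged at 21,000xg for 90 min to give the soluble supernatant.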

crizotinib = compound: C[C@@H](Oc1cc(-c2cnn(C3CCNCC3)c2)cnc1N)c1c(Cl)ccc(F)c1Cl [crizotinib]
In short: as §1

[2] = compound: C[C@@H]1COCCN1C2=NC(=NC(=C2)C3(CC3)S(=O)(=O)C)C4=C5C=CNC5=CC=C4
In short: as §1

[3] = compound: C[C@H](C1=CC=C(C=C1)C(=O)NC2=C3C=CNC3=NC=C2)N
In short: as §1

gandotinib = compound: Cc1cc(Nc2cc(CN3CCOCC3)c3nc(C)c(Cc4ccc(Cl)cc4F)n3n2)n[nH]1 [gandotinib]
In short: as §1

[4] = compound: Cc1cc(SCc2sc(-c3ccc(C(F)(F)F)cc3)nc2C)ccc1OCC(=O)O
In short: as §1

doramapimod = compound: Cc1ccc(-n2nc(C(C)(C)C)cc2NC(=O)Nc2ccc(OCCN3CCOCC3)c3ccccc23)cc1 [doramapimod]
In short: as §1

ispinesib = compound: Cc1ccc(C(=O)N(CCCN)[C@@H](c2nc3cc(Cl)ccc3c(=O)n2Cc2ccccc2)C(C)C)cc1 [ispinesib]
In short: as §1

bafetinib = compound: Cc1ccc(NC(=O)c2ccc(CN3CC[C@H](N(C)C)C3)c(C(F)(F)F)c2)cc1Nc1nccc(-c2cncnc2)n1 [bafetinib]
In short: as §1

[5] = compound: Cc1cccc(CC(=O)N2CCc3c2ccc(-c2cn(C)c4ncnc(N)c24)c3F)n1
In short: as §1

nilotinib = compound: Cc1cn(-c2cc(NC(=O)c3ccc(C)c(Nc4nccc(-c5cccnc5)n4)c3)cc(C(F)(F)F)c2)cn1 [nilotinib]
In short: as §1

[6] = compound: Cc1nc(Nc2n[nH]c3c2CN(C(=O)N[C@H](CN(C)C)c2ccccc2)C3(C)C)c2sccc2n1
In short: as §1

dasatinib = compound: Cc1nc(Nc2ncc(C(=O)Nc3c(C)cccc3Cl)s2)cc(N2CCN(CCO)CC2)n1 [dasatinib]
In short: as §1

[7] = compound: Cc1ncc(-c2ccnc(Nc3ccc(S(C)(=O)=O)cc3)n2)n1C(C)C
In short: as §1

[8] = compound: Cn1cc(-c2ccc3c(c2)CCN3C(=O)Cc2cccc(C(F)(F)F)c2)c2c(N)ncnc21
In short: as §1

[9] = compound: Cn1cc(-c2ccc3nnc(C(F)(F)c4ccc5ncccc5c4)n3n2)cn1
In short: as §1

tipifarnib = compound: Cn1cncc1[C@@](N)(c1ccc(Cl)cc1)c1ccc2c(c1)c(-c1cccc(Cl)c1)cc(=O)n2C [tipifarnib]
In short: as §1

mubritinib = compound: FC(F)(F)c1ccc(/C=C/c2nc(COc3ccc(CCCCn4ccnn4)cc3)co2)cc1 [mubritinib]
In short: as §1

tozasertib = compound: Cc1cc(Nc2cc(N3CCN(C)CC3)nc(Sc3ccc(NC(=O)C4CC4)cc3)n2)n[nH]1 [tozasertib]
In short: as §1

duvelisib = compound: C[C@H](Nc1ncnc2nc[nH]c12)c1cc2cccc(Cl)c2c(=O)n1-c1ccccc1 [duvelisib]
In short: as §1

Target	log2 fold change [1]	log2 fold change (crizotinib)	log2 fold change [2]	log2 fold change [3]	log2 fold change (gandotinib)	log2 fold change [4]	log2 fold change (doramapimod)	log2 fold change (ispinesib)	log2 fold change (bafetinib)	log2 fold change [5]	log2 fold change (nilotinib)	log2 fold change [6]	log2 fold change (dasatinib)	log2 fold change [7]	log2 fold change [8]	log2 fold change [9]	log2 fold change (tipifarnib)	log2 fold change (mubritinib)	log2 fold change (tozasertib)	log2 fold change (duvelisib)
SMCHD1 (UniProt A6NHR9)	inactive: -0.019	inactive: -0.065	inactive: -0.041	inactive: -0.104	inactive: 0.064	inactive: 0.104	inactive: 0.059	inactive: -0.149	inactive: 0.306	inactive: 0	inactive: 0.037	inactive: -0.011	inactive: -0.319	inactive: -0.044	inactive: -0.061	inactive: -0.084	inactive: -0.003	inactive: -0.136	–	–
SMAP (UniProt O00193)	inactive: 0.004	inactive: -0.06	inactive: -0.01	inactive: -0.082	inactive: -0.032	inactive: -0.03	inactive: 0.023	inactive: -0.015	inactive: 0.043	inactive: -0.022	inactive: -0.004	inactive: 0.006	inactive: 0.033	inactive: -0.011	inactive: 0.005	inactive: -0.027	inactive: -0.042	inactive: 0.038	–	–
SLCO4A1 (UniProt Q96BD0)	inactive: 0.048	inactive: 0.193	inactive: -0.096	inactive: -0.016	inactive: 0.054	–	inactive: -0.081	inactive: -0.298	inactive: -0.062	inactive: -0.019	inactive: 0.02	inactive: -0.002	–	inactive: 0.016	inactive: 0	inactive: -0.15	inactive: -0.074	inactive: 0.109	inactive: 0.104	–
SMAP2 (UniProt Q8WU79)	inactive: 0.04	inactive: 0.097	inactive: 0.015	inactive: 0.04	inactive: -0.011	inactive: 0.096	inactive: -0.047	inactive: -0.006	inactive: 0.01	inactive: -0.025	inactive: -0.078	inactive: -0.039	inactive: -0.135	inactive: 0.044	inactive: -0.022	inactive: -0.004	inactive: -0.014	inactive: 0.018	–	–
SMC5 (UniProt Q8IY18)	inactive: 0.03	inactive: 0.161	inactive: 0.081	inactive: 0.036	inactive: 0.028	inactive: 0.017	inactive: 0.015	inactive: 0.092	inactive: 0.02	inactive: -0.029	inactive: 0	inactive: -0.095	inactive: 0.05	inactive: 0.082	inactive: 0.006	inactive: -0.102	inactive: 0.032	inactive: -0.004	–	–
SP3 (UniProt Q02447)	inactive: -0.005	inactive: 0.013	inactive: -0.071	inactive: 0.123	inactive: 0.086	inactive: 0	inactive: 0.089	inactive: -0.046	inactive: 0.022	inactive: -0.018	inactive: -0.01	inactive: 0.093	inactive: 0	inactive: -0.042	inactive: -0.044	inactive: 0.103	inactive: -0.041	inactive: -0.045	–	–
SNX9 (UniProt Q9Y5X1)	inactive: 0.013	inactive: -0.077	inactive: -0.009	inactive: 0.003	inactive: -0.054	inactive: 0.115	inactive: -0.009	inactive: -0.074	inactive: -0.015	inactive: 0.03	inactive: -0.06	inactive: -0.064	inactive: -0.131	inactive: 0.006	inactive: -0.023	inactive: -0.008	inactive: -0.013	inactive: 0.009	–	–
SP100 isoform 4 (UniProt P23497)	inactive: -0.002	inactive: 0.062	inactive: 0.071	inactive: -0.1	inactive: -0.008	inactive: -0.016	inactive: -0.046	inactive: 0.062	inactive: -0.047	inactive: -0.056	inactive: -0.02	inactive: -0.061	inactive: -0.054	inactive: -0.057	inactive: 0.02	inactive: 0.026	inactive: -0.087	inactive: 0.043	–	–
SNUPN (UniProt O95149)	inactive: 0.019	inactive: -0.187	inactive: 0.045	inactive: -0.007	inactive: -0.074	inactive: -0.014	inactive: -0.007	inactive: 0.029	inactive: -0.031	inactive: 0.006	inactive: -0.025	inactive: -0.009	inactive: -0.051	inactive: 0.018	inactive: 0.013	inactive: -0.054	inactive: 0.003	inactive: 0.06	–	–
SLC9A6 isoform 2 (UniProt Q92581)	inactive: 0.028	inactive: 0.048	inactive: 0.022	inactive: -0.005	inactive: -0.105	inactive: -0.067	inactive: 0	active: -0.331	inactive: -0.049	inactive: 0.012	inactive: 0.039	inactive: 0.011	inactive: 0.017	inactive: -0.002	inactive: -0.019	inactive: 0.026	inactive: 0.047	inactive: 0.033	–	–
SNX5 (UniProt Q9Y5X3)	inactive: -0.075	active: -0.32	inactive: 0.022	inactive: -0.014	inactive: -0.138	inactive: 0.036	inactive: -0.019	inactive: -0.236	inactive: -0.154	inactive: 0.11	inactive: -0.078	inactive: 0.006	inactive: -0.169	inactive: -0.314	inactive: 0.05	inactive: 0.001	inactive: -0.027	inactive: 0.082	–	–
SNRNP27 (UniProt Q8WVK2)	inactive: 0.002	inactive: 0.038	inactive: -0.069	inactive: 0.072	inactive: 0.013	inactive: -0.065	inactive: -0.056	inactive: -0.119	inactive: -0.015	inactive: -0.079	inactive: 0.087	active: -0.487	inactive: 0.045	inactive: -0.064	inactive: -0.078	inactive: 0.031	inactive: 0.032	inactive: 0.059	–	–
SLC7A6 (UniProt Q92536)	inactive: -0.011	inactive: 0.065	inactive: -0.173	inactive: -0.149	inactive: -0.114	inactive: -0.041	inactive: 0.001	inactive: 0.17	inactive: 0.042	inactive: 0.029	inactive: 0.046	inactive: 0.008	inactive: 0.04	inactive: -0.007	inactive: 0.024	inactive: -0.087	inactive: -0.016	inactive: 0.049	–	–
SLC7A6OS (UniProt Q96CW6)	inactive: 0.047	inactive: -0.04	inactive: 0.004	inactive: -0.133	inactive: -0.081	inactive: -0.049	inactive: 0.214	inactive: 0.077	inactive: -0.062	inactive: 0.15	inactive: -0.019	inactive: -0.035	inactive: 0.004	inactive: -0.031	inactive: 0.026	inactive: -0.13	inactive: 0.06	inactive: 0.058	–	–
SNX6 (UniProt Q9UNH7)	inactive: -0.169	inactive: -0.323	inactive: -0.014	inactive: -0.033	active: -0.5	inactive: 0.061	inactive: -0.036	inactive: -0.281	inactive: -0.132	inactive: 0.138	inactive: -0.214	inactive: 0.012	inactive: -0.176	active: -0.47	inactive: 0.094	inactive: 0.019	inactive: -0.045	inactive: 0.058	–	–
SP6 (UniProt Q3SY56)	inactive: 0.033	–	inactive: -0.097	inactive: -0.024	–	inactive: -0.028	–	inactive: -0.139	inactive: -0.154	–	inactive: -0.148	inactive: 0.205	inactive: -0.035	inactive: 0.009	inactive: 0.037	inactive: -0.043	inactive: 0.058	inactive: -0.118	inactive: 0.007	inactive: 0.015
SMYD3 (UniProt Q9H7B4)	inactive: 0.229	–	inactive: -0.103	inactive: 0.223	inactive: -0.011	inactive: 0.22	–	inactive: -0.096	inactive: 0.08	inactive: -0.006	inactive: -0.074	inactive: -0.06	inactive: -0.034	inactive: 0.102	inactive: -0.053	inactive: -0.136	inactive: -0.002	inactive: 0.105	inactive: 0.214	inactive: -0.062
SMIM1 (UniProt B2RUZ4)	inactive: -0.068	inactive: -0.276	–	inactive: -0.226	inactive: 0.07	inactive: -0.122	inactive: -0.012	–	inactive: -0.096	inactive: 0.135	inactive: -0.017	inactive: 0.074	inactive: 0.035	inactive: 0.206	inactive: 0.13	–	inactive: 0.112	inactive: 0.044	inactive: 0.118	inactive: -0.171

As entered above.
In log2 fold change (duvelisib), SMYD3 (UniProt Q9H7B4) has inactive: -0.062
In log2 fold change [1], SMIM1 (UniProt B2RUZ4) has inactive: -0.068
